# From patent publication US20230285506A1
# By UniProt entry, the sequences of proteins in these tests, tags left out. Residues count along the entry.
# UniProt P22004, residues 382-513: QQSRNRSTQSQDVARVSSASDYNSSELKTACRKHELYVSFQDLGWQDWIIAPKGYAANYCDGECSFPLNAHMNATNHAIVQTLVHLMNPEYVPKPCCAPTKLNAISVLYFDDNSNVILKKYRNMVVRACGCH
# No constants are given. Whether binding was seen depends on the method and setting. Some binding calls cover weakened binding; strength is not graded here.
# T1: BMP10 (human) (UniProt O95393)
# T1 sequence: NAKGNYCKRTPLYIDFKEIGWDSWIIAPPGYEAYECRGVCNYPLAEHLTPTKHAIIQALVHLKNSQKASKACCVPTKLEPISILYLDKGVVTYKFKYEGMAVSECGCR
# T2: BMP9 (human) (UniProt Q9UK05)
# T2 sequence (looked up): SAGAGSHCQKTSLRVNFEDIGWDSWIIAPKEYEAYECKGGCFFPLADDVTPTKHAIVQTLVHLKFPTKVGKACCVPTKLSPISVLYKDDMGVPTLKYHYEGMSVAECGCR
# B1: ALK1-mFc (Fc fusion, mouse, UniProt Q61288 23-119, looked up, not shown: small tags and cut ends; a dimerising Fc or GST)
# chain: DLAKPSKLVNCTCESPHCKRPFCQGSWCTVVLVREQGRHPQVYRGCGSLNQELCLGRPTEFLNHHCCYRSFCNHNVSLMLEATQTPSEEPEVDAHLP
# B2: hENG(26-581)-hFc (Fc fusion, not shown: small tags and cut ends; a dimerising Fc or GST)
# chain: ETVHCDLQPVGPERGEVTYTTSQVSKGCVAQAPNAILEVHVLFLEFPTGPSQLELTLQASKQNGTWPREVLLVLSVNSSVFLHLQALGIPLHLAYNSSLVTFQEPPGVNTTELPSFPKTQILEWAAERGPITSAAELNDPQSILLRLGQAQGSLSFCMLEASQDMGRTLEWRPRTPALVRGCHLEGVAGHKEAHILRVLPGHSAGPRTVTVKVELSCAPGDLDAVLILQGPPYVSWLIDANHNMQIWTTGEYSFKIFPEKNIRGFKLPDTPQGLLGEARMLNASIVASFVELPLASIVSLHASSCGGRLQTSPAPIQTTPPKDTCSPELLMSLIQTKCADDAMTLVLKKELVAHLKCTITGLTFWDPSCEAEDRGDKFVLRSAYSSCGMQVSASMISNEAVVNILSSSSPQRKKVHCLNMDSLSFQLGLYLSPHFLQASNTIEPGQQSFVQVRVSPSVSEFLLQLDSCHLDLGPEGGTVELIQGRAAKGNCVSLLSPSPEGDPRFSFLLHFYTVPIPKTGTLSCTVALRPKTGSQDQEVHRTVFMRLNIISPDLSG
# B3: hENG(26-437)-hFc (Fc fusion, not shown: small tags and cut ends; a dimerising Fc or GST)
# chain: ETVHCDLQPVGPERGEVTYTTSQVSKGCVAQAPNAILEVHVLFLEFPTGPSQLELTLQASKQNGTWPREVLLVLSVNSSVFLHLQALGIPLHLAYNSSLVTFQEPPGVNTTELPSFPKTQILEWAAERGPITSAAELNDPQSILLRLGQAQGSLSFCMLEASQDMGRTLEWRPRTPALVRGCHLEGVAGHKEAHILRVLPGHSAGPRTVTVKVELSCAPGDLDAVLILQGPPYVSWLIDANHNMQIWTTGEYSFKIFPEKNIRGFKLPDTPQGLLGEARMLNASIVASFVELPLASIVSLHASSCGGRLQTSPAPIQTTPPKDTCSPELLMSLIQTKCADDAMTLVLKKELVAHLKCTITGLTFWDPSCEAEDRGDKFVLRSAYSSCGMQVSASMISNEAVVNILSSSSPQR
# B4: BMP10pro(22-315)-mFc (Fc fusion, not shown: a dimerising Fc or GST)
# chain: SPIMNLEQSPLEEDMSLFGDVFSEQDGVDFNTLLQSMKDEFLKTLNLSDIPTQDSAKVDPPEYMLELYNKFATDRTSMPSANIIRSFKNEDLFSQPVSFNGLRKYPLLFNVSIPHHEEVIMAELRLYTLVQRDRMIYDGVDRKITIFEVLESKGDNEGERNMLVLVSGEIYGTNSEWETFDVTDAIRRWQKSGSSTHQLEVHIESKHDEAEDASSGRLEIDTSAQNKHNPLLIVFSDDQSSDKERKEELNEMISHEQLPELDNLGLDSFSSGPGEEALLQMRSNIIYDSTARIR
# B5: BMP10pro(22-312)-mFc (Fc fusion, not shown: a dimerising Fc or GST)
# chain: SPIMNLEQSPLEEDMSLFGDVFSEQDGVDFNTLLQSMKDEFLKTLNLSDIPTQDSAKVDPPEYMLELYNKFATDRTSMPSANIIRSFKNEDLFSQPVSFNGLRKYPLLFNVSIPHHEEVIMAELRLYTLVQRDRMIYDGVDRKITIFEVLESKGDNEGERNMLVLVSGEIYGTNSEWETFDVTDAIRRWQKSGSSTHQLEVHIESKHDEAEDASSGRLEIDTSAQNKHNPLLIVFSDDQSSDKERKEELNEMISHEQLPELDNLGLDSFSSGPGEEALLQMRSNIIYDSTA
# Assays:
# [1] = molecular target: T1, BMP10 (human); assay: SPR (Biacore); ligand amine-coupled to CM5 chip
# [2] = molecular target: T2, BMP9 (human); assay: SPR (Biacore); ligand amine-coupled to CM5 chip
# [3] = molecular target: T1, BMP10 (human); assay: SPR screen; captured hENG-hFc, soluble ligand at 100 nM; ++++ means KD < 1 nM
# [4] = molecular target: T2, BMP9 (human); assay: as above
# [5] = molecular target: T1, BMP10 (human); assay: SPR ligand panel; ligand at 5 nM; ++++ means KD < 1 nM
# [6] = molecular target: T2, BMP9 (human); assay: as above
# [7] = molecular target: T1, BMP10 (human); assay: SPR ligand panel
# [8] = molecular target: T2, BMP9 (human); assay: SPR ligand panel
# [9] = molecular target: T1, BMP10 (human); assay: SPR kinetics
# [10] = molecular target: BMP6 (human) (UniProt P22004); assay: SPR (Biacore); BMP10pro-Fc captured via anti-Fc antibody, ligand injected
binder,measurement,setting,value
B1,binding,[1],binds
same,binding,[2],binds
B2,binding,[3],binds
same,binding,[4],binds
B3,binding,[5],binds
same,binding,[6],binds
same,binding,[7],binds
same,binding,[8],binds
same,binding,[9],binds
same,binding,[3],binds
same,binding,[4],binds
B4,binding,[10],binds
B5,binding,[10],binds
